Measurements as given in article PMC6356446.
No constants are given. Whether binding was seen depends on the method and setting. For part of these data: Binding seen in cells or lysates may run through a third protein. Some results given as binding are weak or reduced against the parent protein; the word gives no strength.

Chains of the proteins cited; added tags and fusions are not shown. Residues count along the entry.
UniProt P21860, residues 20-1342: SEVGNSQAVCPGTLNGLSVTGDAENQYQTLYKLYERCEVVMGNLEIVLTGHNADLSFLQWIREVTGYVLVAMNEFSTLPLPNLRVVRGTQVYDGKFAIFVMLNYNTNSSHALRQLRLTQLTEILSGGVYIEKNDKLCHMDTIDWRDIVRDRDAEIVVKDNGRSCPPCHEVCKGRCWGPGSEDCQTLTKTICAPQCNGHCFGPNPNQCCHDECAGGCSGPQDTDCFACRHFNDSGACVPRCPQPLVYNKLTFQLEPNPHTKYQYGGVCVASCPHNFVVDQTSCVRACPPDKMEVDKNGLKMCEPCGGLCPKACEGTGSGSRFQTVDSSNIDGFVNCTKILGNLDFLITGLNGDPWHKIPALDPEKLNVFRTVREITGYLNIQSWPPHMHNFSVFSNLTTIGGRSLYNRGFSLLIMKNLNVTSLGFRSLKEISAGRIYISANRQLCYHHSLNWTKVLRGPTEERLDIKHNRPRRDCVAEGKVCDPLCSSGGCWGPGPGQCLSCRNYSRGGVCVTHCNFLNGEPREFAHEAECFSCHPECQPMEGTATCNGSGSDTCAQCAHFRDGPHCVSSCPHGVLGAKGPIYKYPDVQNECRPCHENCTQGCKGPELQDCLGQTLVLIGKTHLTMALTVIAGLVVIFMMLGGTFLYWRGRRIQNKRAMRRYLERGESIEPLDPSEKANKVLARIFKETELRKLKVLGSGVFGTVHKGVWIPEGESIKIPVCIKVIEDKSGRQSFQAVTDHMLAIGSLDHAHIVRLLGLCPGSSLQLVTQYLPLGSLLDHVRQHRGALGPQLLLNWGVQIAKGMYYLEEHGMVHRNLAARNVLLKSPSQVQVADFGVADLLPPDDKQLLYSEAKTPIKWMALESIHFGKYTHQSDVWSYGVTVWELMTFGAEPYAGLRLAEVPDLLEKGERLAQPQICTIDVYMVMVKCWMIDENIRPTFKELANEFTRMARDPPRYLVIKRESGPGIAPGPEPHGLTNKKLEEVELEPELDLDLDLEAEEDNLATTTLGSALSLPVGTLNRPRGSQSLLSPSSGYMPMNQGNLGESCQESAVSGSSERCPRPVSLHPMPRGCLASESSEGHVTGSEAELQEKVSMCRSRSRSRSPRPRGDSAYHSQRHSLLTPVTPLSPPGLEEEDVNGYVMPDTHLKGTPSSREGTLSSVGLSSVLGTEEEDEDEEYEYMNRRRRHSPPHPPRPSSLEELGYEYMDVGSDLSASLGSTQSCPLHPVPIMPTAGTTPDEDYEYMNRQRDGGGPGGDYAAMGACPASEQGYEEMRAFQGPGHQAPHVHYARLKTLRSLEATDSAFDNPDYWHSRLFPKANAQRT

Experiments:
[1] = molecular target: c-Met (human (endogenous in HCC413)), P08581; test: co-IP; HCC413 cells untreated or pre-incubated with mannosidase inhibitors (KIF 10 uM, SWN 5.8 uM), then LZ-8 for 30 min; IP of EGFR or c-Met, immunoblot of LZ-8; only the binder purified; details: remark: other sources report otherwise
[2] = molecular target: HER3 (human (endogenous in HCC413)) (UniProt P21860); test: far-Western, overlay or dot blot; affinity blot: RTKs immunoprecipitated from HCC413 cells (untreated or 10 uM KIF for 24 h), probed with biotin-labeled LZ-8, avidin-HRP chemiluminescent detection; only the binder purified
[3] = molecular target: c-Met (human (endogenous in HCC413)), P08581; test: as above; details: remark: other sources report otherwise

B1: Ling-Zhi-8, P14945 1-111 (natural protein)
chain: MSDTALIFRLAWDVKKLSFDYTPNWGRGNPNNFIDTVTFPKVLTDKAYTYRVAVSGRNLGVKPSYAVESDGSQKVNFLEYNSGYGIADTNTIQVFVVDPDTNNDFIIAQWN
modifications: here or on the partner: N-glycans (sites not given)
binding [1]: binds

B2: biotin-labeled LZ-8 (protein, UniProt P14945 1-111)
chain: B1 chain
modifications: biotin (site not stated)
binding [2]: binds

B3: biotin-labeled LZ-8, P14945 1-111 (protein)
chain: B1 chain
modifications: here or on the partner: biotin (site not stated); N-glycans (sites not given)
binding [3]: binds
